Source: US20250249092A1 (TORAY INDUSTRIES, published 2025)
Changes are numbered by the printed parent chain. Results are given in words; binding and its absence hold for the method and conditions named. Some binding calls cover weakened binding; strength is not graded here. One block for each binder: values may come before it.

How the values were obtained:
CAPRIN-1 protein = target: T1, CAPRIN-1 protein (UniProt Q14444); assay: ELISA
T1 sequence (looked up): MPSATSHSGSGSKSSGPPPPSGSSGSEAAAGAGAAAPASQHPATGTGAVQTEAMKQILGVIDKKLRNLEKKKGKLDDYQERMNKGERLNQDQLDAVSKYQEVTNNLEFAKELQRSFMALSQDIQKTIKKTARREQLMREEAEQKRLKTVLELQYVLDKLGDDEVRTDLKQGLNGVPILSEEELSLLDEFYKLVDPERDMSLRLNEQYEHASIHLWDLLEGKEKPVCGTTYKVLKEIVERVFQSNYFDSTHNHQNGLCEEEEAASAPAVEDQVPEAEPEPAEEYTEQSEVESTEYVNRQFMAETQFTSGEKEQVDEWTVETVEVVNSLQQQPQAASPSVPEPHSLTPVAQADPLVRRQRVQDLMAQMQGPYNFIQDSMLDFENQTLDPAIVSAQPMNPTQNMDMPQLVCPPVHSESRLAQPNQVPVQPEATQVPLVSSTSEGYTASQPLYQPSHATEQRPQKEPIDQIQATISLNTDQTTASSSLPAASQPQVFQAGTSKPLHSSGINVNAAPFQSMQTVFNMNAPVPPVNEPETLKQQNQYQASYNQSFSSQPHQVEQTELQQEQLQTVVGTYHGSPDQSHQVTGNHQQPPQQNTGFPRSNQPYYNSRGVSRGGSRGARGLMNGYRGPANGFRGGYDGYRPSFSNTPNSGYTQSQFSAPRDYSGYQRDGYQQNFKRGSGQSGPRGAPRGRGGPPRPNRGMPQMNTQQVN

[1] = target: T2, CAPRIN-1 protein on the cell membrane surface of cancer cells (UniProt Q14444); assay: flow cytometry
T2 sequence (looked up): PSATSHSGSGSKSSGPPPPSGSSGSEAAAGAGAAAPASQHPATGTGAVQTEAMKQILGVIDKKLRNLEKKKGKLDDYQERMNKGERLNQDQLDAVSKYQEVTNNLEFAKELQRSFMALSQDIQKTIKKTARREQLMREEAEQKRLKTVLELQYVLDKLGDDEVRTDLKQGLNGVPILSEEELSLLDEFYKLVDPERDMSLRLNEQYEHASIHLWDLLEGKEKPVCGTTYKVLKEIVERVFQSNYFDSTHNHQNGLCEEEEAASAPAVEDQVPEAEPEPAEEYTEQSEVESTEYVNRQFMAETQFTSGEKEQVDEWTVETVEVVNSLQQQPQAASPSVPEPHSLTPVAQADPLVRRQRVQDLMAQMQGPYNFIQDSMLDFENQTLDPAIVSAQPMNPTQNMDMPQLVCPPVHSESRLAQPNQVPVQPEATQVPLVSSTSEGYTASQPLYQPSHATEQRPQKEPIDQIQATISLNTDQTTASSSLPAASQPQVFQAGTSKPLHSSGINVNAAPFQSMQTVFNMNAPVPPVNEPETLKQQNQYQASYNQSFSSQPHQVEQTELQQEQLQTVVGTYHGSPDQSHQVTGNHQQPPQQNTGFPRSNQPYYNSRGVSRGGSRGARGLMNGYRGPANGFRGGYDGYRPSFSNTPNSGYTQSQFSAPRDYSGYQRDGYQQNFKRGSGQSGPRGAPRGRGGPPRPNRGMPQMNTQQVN

B1: Conjugate 77 (antibody, human IgG1, V domains shown)
VH: EVQLVESGGGLVQPGGSLRLSCAASGFSLSSHSLGWVRQAPGKGLEWIGDIRSGGSAYYANWAKGRFTISRDNSKNTLYLQMNSLRAEDTAVYFCTRTNGPSDLTNRLDLWGQGTLVTVSS
VL: EQVLTQSPSSLSASVGDRVTINCQASQSLYNNENLAWFQQKPGKVPKRLIYGASTLASGVSSRFSGSGSGTEFTLTISNLQPEDFAIYYCLGEFSCGSADCFAFGGGTKVEIK
- binding (CAPRIN-1 protein): binds
- binding [1]: binds

B2: Conjugate 105 (antibody, human IgG1, V domains shown)
VH: B1 VH with F94Y
VL: QVLTQSPSSLSASVGDRVTINCQASQSLYNNENLAWFQQKPGKVPKRLIYGASTLASGVSSRFSGSGSGTEFTLTISSLQCEDFAIYYCLGEFSCGSADCFAFGGGTKVEIK
- binding (CAPRIN-1 protein): binds
- binding [1]: binds

B3: Conjugate 106 (antibody, human IgG1, V domains shown)
VH: B1 VH
VL: B2 VL
- binding (CAPRIN-1 protein): binds
- binding [1]: binds

B5: Conjugate 83 (antibody, human IgG1, V domains shown)
VH: DAELVKPGASVKISCKASGYTFTDHSIHWVQQKPEQGLEWIGYISPGNGNIKYNEKFKGKATLTADKSSSTAYMQLNSLTSEDSAVYFCKRSLGRGGPYYFDYWGQGTTVTVSS
VL: DIVLTQAAPSLPVTPGESVSISCRSSKSLLHSNGNTYLYWFLQRPGQSPQLLIYRMSNLASGVPDRFSGSGSGTAFTLRISRVEAEDVGVYYCMQHREYPVTFGSGPN
- binding (CAPRIN-1 protein): binds
- binding [1]: binds

B9: Conjugate 78 (antibody, human IgG1, V domains shown)
VH: AVTLDESGGGLQTPGGALSLVCKASGFTFSGYDMLWVRQAPGKGLEWVAGIGSTGGGTDYGAAVKGRATISRDNGQSTVRLQLNNLRAEDTATYYCAKVAGGCNSGYCRDSPGSIDAWGHGTEVIVS
VL: AVTQQPASVSANPGETVKITCSGGGSRNYYGWYQQKSPGSVPVTVIYYDDQRPSNIPSRFSGALSGSTSTLTITGVQADDEAVYFCGSADSNTYEGSFGAGTTLTVL
- binding (CAPRIN-1 protein): binds
- binding [1]: binds

Results, then the binder that gave them:

- binding (CAPRIN-1 protein): binds
- binding [1]: binds
B4: Conjugate 107 (antibody, human IgG1, V domains shown)
VH: B1 VH with F94Y
VL: B1 VL

- binding (CAPRIN-1 protein): binds
- binding [1]: binds
B6: Conjugate 88 (antibody, human IgG1, V domains shown)
VH: EVQLHQFGAELVKPGASVKISCKASGYTFTDYNMDWVKQSHGKSLEWIGDINPNYDSTSYNQKFKGKATLTVDKSSSTAYMELRSLTSEDTAVYYCARSRSYDYEGFAYWGQGTLVTVSA
VL: DIQMTQSPASLSASVGETVTITCRASGNIHNYLAWYQQKQGKSPQLLVYNAKTLADGVPSRFSGSGSGTQYSLKINSLQPEDFGSYYCQHFWSTLTFGAGTKLELKR

- binding (CAPRIN-1 protein): binds
- binding [1]: binds
B7: Conjugate 82 (antibody, human IgG1, V domains shown)
VH: GAELVRSGASVKMSCKASGYSFTDYNMYWVKQTPGQGLEWIGYIYPGNGGTNYNQKFKGKATLTADTSSSTAYMQISSLTSEDSAVYFCARDYDDGGYAMDYWGQGTTVTVSS
VL: DIQMTQSPASLSASVGETVTITCRASGNIHNYLTWYQQKQGKSPQLLVYNAKTLADGVPSRFSGSGSGTQYSLKINRLQPEDFGSYYCQHFWNIPWTFGGGTKLNSR

- binding (CAPRIN-1 protein): binds
- binding [1]: binds
B8: Conjugate 99 (antibody, human IgG1, V domains shown)
VH: GPDLVKPGASVKISCKASGYSFTAYYMHWVKQSHGKSLEWIGRVNPNNGGTTYNQKFKGKAILTVDKSSSTAYMELRSLTFEDSAVYYCARRIYYGYFDYWGQGTTVTVSS
VL: AFFAVSLGQRATISCKASQSVDYDGDSYMNWYQQKPGQPPKLLIYVASNLESGVPARFSGSGSGTDFTLNIHPVEEEDAATYYCQQSNEDPYTFGGGTKLEIKQ
